No constants are given. Whether binding was seen depends on the method and setting. Binding seen in cells or lysates may run through a third protein. Some entries that bind do so weakly or less than the wild type. One block for each molecule: values may come before it.
Target: T1, purinergic receptor P2X4 (human (endogenous in GEC)) (UniProt Q99571)
T1 sequence: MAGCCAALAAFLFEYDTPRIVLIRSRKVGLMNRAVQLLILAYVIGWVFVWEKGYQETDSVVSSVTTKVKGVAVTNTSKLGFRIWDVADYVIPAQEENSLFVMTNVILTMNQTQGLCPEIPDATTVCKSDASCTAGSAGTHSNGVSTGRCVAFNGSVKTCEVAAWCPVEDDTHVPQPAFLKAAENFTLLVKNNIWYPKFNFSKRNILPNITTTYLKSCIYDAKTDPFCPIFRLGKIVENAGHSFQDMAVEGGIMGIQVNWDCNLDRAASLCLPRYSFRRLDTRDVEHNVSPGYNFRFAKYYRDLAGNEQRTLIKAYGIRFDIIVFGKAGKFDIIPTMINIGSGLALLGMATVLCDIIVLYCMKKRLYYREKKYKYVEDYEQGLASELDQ
Assay: co-IP; GEC extracts incubated 3 h at 4°C with Dynabeads pre-coupled with polyclonal anti-P2X4 antibody; Dynabeads as control; immunoblots with anti-P2X7, anti-pannexin-1, anti-P2X4

Protein sequences, listed by entry. Tags and fused reporters are not part of them.
UniProt Q96RD7: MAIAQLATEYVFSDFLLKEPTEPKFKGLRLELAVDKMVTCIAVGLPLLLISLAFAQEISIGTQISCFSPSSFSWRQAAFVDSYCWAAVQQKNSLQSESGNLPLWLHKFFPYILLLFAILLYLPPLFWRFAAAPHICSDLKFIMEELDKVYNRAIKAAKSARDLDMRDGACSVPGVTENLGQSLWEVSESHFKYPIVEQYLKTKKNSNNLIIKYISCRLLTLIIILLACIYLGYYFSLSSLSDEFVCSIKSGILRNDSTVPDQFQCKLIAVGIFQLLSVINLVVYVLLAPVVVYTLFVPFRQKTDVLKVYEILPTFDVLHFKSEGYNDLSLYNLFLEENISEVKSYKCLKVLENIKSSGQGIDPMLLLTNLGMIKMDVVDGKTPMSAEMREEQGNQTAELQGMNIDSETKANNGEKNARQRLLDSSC

binding: binds
Molecule: pannexin-1 (from UniProt Q96RD7 1-426)

binding: binds
B1: purinergic receptor P2X7 (receptor, UniProt Q99572 1-595)
chain: MPACCSCSDVFQYETNKVTRIQSMNYGTIKWFFHVIIFSYVCFALVSDKLYQRKEPVISSVHTKVKGIAEVKEEIVENGVKKLVHSVFDTADYTFPLQGNSFFVMTNFLKTEGQEQRLCPEYPTRRTLCSSDRGCKKGWMDPQSKGIQTGRCVVYEGNQKTCEVSAWCPIEAVEEAPRPALLNSAENFTVLIKNNIDFPGHNYTTRNILPGLNITCTFHKTQNPQCPIFRLGDIFRETGDNFSDVAIQGGIMGIEIYWDCNLDRWFHHCRPKYSFRRLDDKTTNVSLYPGYNFRYAKYYKENNVEKRTLIKVFGIRFDILVFGTGGKFDIIQLVVYIGSTLSYFGLAAVFIDFLIDTYSSNCCRSHIYPWCKCCQPCVVNEYYYRKKCESIVEPKPTLKYVSFVDESHIRMVNQQLLGRSLQDVKGQEVPRPAMDFTDLSRLPLALHDTPPIPGQPEEIQLLRKEATPRSRDSPVWCQCGSCLPSQLPESHRCLEELCCRKKPGACITTSELFRKLVLSRHVLQFLLLYQEPLLALDVDSTNSRLRHCAYRCYATWRFGSQDMADFAILPSCCRWRIRKEFPKSEGQYSGFKSPY

— paper PMC3723664
